First the molecules themselves.
B1: C116 (antibody, human IgG1, kappa, V domains shown)
VH: EVKLVESGGGLVQPGGSLKLSCAVSGFTFSSYTMSWVRQTPEKRLELVAKISNSGGSTNYPDTVKGRFTLSRDNVKNTLYLQMSSLKSEDTAIYYCTRYSWDVYAMDYWGQGTSVTVSS
VL: DIQMTQSPASLSASVGETVIITCRASENIYSYLAWYQQKQGKSPHLLVYNAETLVEGVPSRFSGSGSATQFSLKINSLQPEDFGTYYCQHHYGDPTFGGGTKLEIKR
B2: C117 (antibody, human IgG1, kappa, V domains shown)
VH: QVQLQQSGAELARPGASVKMSCKASGYTFTDYWMQWVKQRPGQGLEWIGAIFPGNGETRDTQKFKGRATLTADRSSSTAYIQLSSLTSEDSAVYYCATFNNYLDYWGQGTTLTVAS
VL: QIVLTQSPAIMSASPGEKVTMTCSASSSVSYMHWYQQKSGASPKRWIYDTSKLTSGVPARFSGSGSGTSYSLTISNMEAEDAATYYCQQWISNPYTFGGGTKLEIKR
B3: C114 (antibody, human IgG1, kappa, V domains shown)
VH: QVQLQQSGAELVRPGTSVKMSCKAAGYTFTNSWINWVKQRPGHGLEWIGDIYPGNTFPNYNEKFKGKATLTADTSSSTAYMQLSSLTSEDSAVYYCTGGYFDVWGTGTTVTVSS
VL: DIVMTQSPSSLSVSAGEKVTMSCKSSQSLLNSGNQKNFLAWYQQKPGQPPKLLIFGASTRQSGVPDRFTGSGSGTDFTLTISSVQAEDLAVYYCQNDHSYPYTFGGGTKLEMKR
B4: C122 (antibody, human IgG1, kappa, V domains shown)
VH: EVQLQQSGPEVVKPGASVKISCKASGNTFTDYFINWVKQRHGKSLEWIGDVNPDNGGTNYNQKFKGKATLTVDKSSGTAFMGLRSLTSEDSAVYYCATLFFDSWGQGTTLTVSS
VL: B3 VL with S12N, F38Y, F55Y, Q61E, V91L, D97A, Y100S, M112I
B5: C121 (antibody, human IgG1, kappa, V domains shown)
VH: B4 VH with R40S, V51I, F100Y, S103Y, T109S
VL: B3 VL with F38Y, F55Y, Q61E, D97A, Y100S, K109R, M112I
B6: C120 (antibody, human IgG1, kappa, V domains shown)
VH: B4 VH with F29L, R40S, S44N, V51I, G57A, T58G, F100Y, S103Y
VL: DIVMTQSPSSLSVSTGEKVTMSCRSSQSLLNSGNQKNYLAWYQQKPGQPPKLLIYGASTRESGVPDRFTGSGSGTDFTLTISSVQAEDLAIYYCQNAHTSPYTFGGGTRLEIKR
B7: C115 (antibody, human IgG1, kappa, V domains shown)
VH: EVQLQQSGAELVKPGASVKLSCTASGFNIEDTYIHWVKRRPEQGLEWIGGIDPAIGNTLYASKFQDMATITADTSSSTAYMQLSSLTSGDTAVYYCARERVYSNTLYYAMDYWGQGTSVTVSS
VL: DIVLTQSPASLVVSLGQRATISCRASKSVSISGYSYMHWYQQKPGQPPKLLIYLASNLESGVPARFSGSGSGTDFTLNIHPVEAEDAATYYCQHSRELPPTFGGGTNLEIKR
B8: C119 (antibody, human IgG1, kappa, V domains shown)
VH: EVKLVESGGGLVQPGGSLKLSCVASGFTFNTYIMSWVRQTPEKRLELVADISNSGGNTYYSDTVKGRFTISRDNAKNTLYLQMSSLKSEDTAMYYCARPDNWDPFVYWGQGTLVTVSA
VL: DIQMTQSSSSFSVSLGDRVTITCKASEDIYARLAWYQQKPGNAPRLLISGATSLETGVPSRFSGSGSGKNYTLSITSLQTEDVGTYYCQQHWSTPWTFGGGTNLEIKR

Chains of the proteins cited; added tags and fusions are not shown. Lines headed by an entry give the natural chain unless they say otherwise; changes in a name come on top.
UniProt Q6DKI7: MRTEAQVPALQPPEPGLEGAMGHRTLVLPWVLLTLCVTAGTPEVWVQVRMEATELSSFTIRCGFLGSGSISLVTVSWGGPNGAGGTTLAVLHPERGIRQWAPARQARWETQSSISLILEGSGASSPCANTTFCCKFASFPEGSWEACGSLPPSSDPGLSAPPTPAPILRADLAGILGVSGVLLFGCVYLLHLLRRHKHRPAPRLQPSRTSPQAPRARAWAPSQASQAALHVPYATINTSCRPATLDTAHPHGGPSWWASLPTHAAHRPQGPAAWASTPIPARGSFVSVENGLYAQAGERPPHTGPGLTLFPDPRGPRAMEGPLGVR

Residue numbers refer to the chain shown, from its start. These are yes or no findings as the source states them, for the method shown. A result given as binding can be weak or reduced; the word gives no strength.

This passage reports binding results from patent publication EP4644419A1.

In the first assay the target is human CD112R antigen protein huCD112R-His (Acro Biosysterm, PVG-H52H4) (human) (UniProt Q6DKI7). Nature of the assay: ELISA, huCD112R-His coated on plate. In general terms: ELISA stands for enzyme-linked immunosorbent assay.
With B1, the binding result was “binds”.

On to B2, for which the binding result was “binds”.

As for B3, the binding entry is listed as “binds”.

With B4, the binding entry is given as “binds”.

Regarding B5, the binding entry is reported as “binds”.

Take B6: the binding entry is reported as “binds”.

B7: the binding result is “binds”.

Regarding B8, the binding entry is “binds”.

Another assay concerns the target monkey antigen protein (monkey CD112R, Uniprot ID: A0A2K5WVV8) (monkey). Nature of the assay: ELISA, monkey antigen protein.
B1: the binding result is reported as “binds”.

As for B2, the binding entry is “binds”.

For B3, the binding entry is “binds”.

For the molecule B4, the binding entry is “binds”.

As to B5, the binding result is recorded as “binds”.

B6: the binding entry is recorded as “binds”.

With B7, the binding result was “binds”.

For B8, the binding entry is given as “binds”.
